Assay: peptide made by a vendor
Details: whole synthesis, high-performance liquid chromatography

With GSTLFRF-NH2 as the substance, how does the “final HPLC purity” value read?
Its value is 99.1%.

With GSLFRF-NH2 as the substance, how does the “final HPLC purity” value read?
The value was 98.9%.

For GTLFRF-NH2, which “final HPLC purity” value is on record?
The value was 99.1%.

Which “final HPLC purity” value does the source give for “QDAMLAPPDRPSEFRSPDQLRQYLKALNEYYAIVGRPRF-NH2” here?
The value was 95.0%.

Which “final HPLC purity” value does the source give for GGLFRF-NH2 here?
Its value is 99.4%.
